Source: PubChem BioAssay AID1671190 (National Center for Advancing Translational Sciences (NCATS), 2021)
Hit rate of the full screen: of about 580,000 compounds, about 6,100 (1.1%) were called active. The shares of active, inactive and inconclusive entries below differ from those in the screen. Calls follow the shape of the dose curve; as a rule, active = well fitted inhibition curve with a large enough effect; inconclusive = small, poorly fitted or top-dose-only effect, or another doubt; inactive = no such curve, though single readings can be large or run the other way. A potency beside an inconclusive call is a rough fit, not a confirmed value.

Protein sequences, listed by entry. Tags and fused reporters are not part of them.
UniProt P18054, whole entry, looked up: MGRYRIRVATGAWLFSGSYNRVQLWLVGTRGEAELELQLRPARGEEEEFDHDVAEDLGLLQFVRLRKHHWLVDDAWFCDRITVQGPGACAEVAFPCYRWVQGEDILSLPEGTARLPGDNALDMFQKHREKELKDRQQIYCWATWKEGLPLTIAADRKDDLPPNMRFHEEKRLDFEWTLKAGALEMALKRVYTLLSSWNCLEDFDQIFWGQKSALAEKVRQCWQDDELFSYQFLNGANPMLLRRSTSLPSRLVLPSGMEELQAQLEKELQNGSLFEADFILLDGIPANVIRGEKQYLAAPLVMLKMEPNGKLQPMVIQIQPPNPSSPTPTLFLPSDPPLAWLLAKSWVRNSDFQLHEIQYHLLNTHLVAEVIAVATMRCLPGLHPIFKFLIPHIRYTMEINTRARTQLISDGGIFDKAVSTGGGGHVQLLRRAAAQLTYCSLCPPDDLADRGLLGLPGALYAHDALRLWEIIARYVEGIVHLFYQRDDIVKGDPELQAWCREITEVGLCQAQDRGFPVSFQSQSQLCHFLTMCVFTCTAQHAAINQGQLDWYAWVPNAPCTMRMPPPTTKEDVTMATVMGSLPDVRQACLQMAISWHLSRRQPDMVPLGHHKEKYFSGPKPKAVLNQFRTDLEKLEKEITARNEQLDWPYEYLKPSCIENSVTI

What follows are compounds tested against Polyunsaturated fatty acid lipoxygenase ALOX12 (Homo sapiens) (UniProt P18054) (assay: Primary qHTS assay for inhibitors of human arachidonate 12S-lipoxygenase (ALOX12): Round 2). Settings: purified 12hLO, xylenol orange hydroperoxide absorbance; activity change, negative = inhibition: at 108 µM (top of the series) unless noted.
Method in brief: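 Purified human 12hLO at 150 nM in 25 mM Hepes, 0.01% Triton X-100, pH 7.0, preincubated 15 min at room temperature with compound. Reaction started with 40 uM arachidonic acid, 30 min at room temperature. Hydroperoxide measured by Fe-xylenol orange, 573/405 nm absorbance ratio.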
% is scaled to controls: 0 for no effect and ±100 for the full control effect; potency is read from the fitted curve at half-maximal effect.

SMILES	Potency	activity change, negative = inhibition
CCNC(=S)N/N=C/c1c(C)nn(-c2cccc(Cl)c2)c1Cl	inconclusive: 0.199 µM [inhibitor, full curve, poor fit]	
NNC(=O)c1[nH]c2ccccc2c1-c1ccccc1		inactive: 0%
Cc1cccc(OCc2nnc(SCC(=O)Nc3ccc(C)c(C)c3)o2)c1		inactive: 6.1% [at 57.4 µM]
COc1ccc(S(=O)(=O)Nc2cc3c4c(c2)CCC(=O)N4CCC3)cc1C	inconclusive: 35.5 µM [inhibitor, partial curve, poor fit]	
CCn1c(CCCc2ccc(OC)c(C)c2)n[nH]c1=S	inconclusive: 44.7 µM [inhibitor, partial curve, poor fit]	
COC(=O)CC1C(=O)NCCN1C(=S)NC(=O)c1sc2ccccc2c1Cl (stereo not given)	inconclusive: 7.94 µM [inhibitor, partial curve, poor fit]	
O=C(CN1CC2CC(C1)[C@H]1CCCC(=O)N1C2)NCc1ccc(F)cc1F (stereo not given in full)		inactive: 30.7%
O=C(COC(=O)c1ccc(NC(=O)c2ccco2)cc1)c1ccccc1	inconclusive: 44.7 µM [inhibitor, single point]	
CC1(/[N+]([O-])=C/c2ccc(F)cc2)CCCCC1=O (stereo not given)	inconclusive: 100 µM [inhibitor, partial curve, poor fit]	
COc1ccc(C2C(C(=O)c3ccc(C)o3)=C(O)C(=O)N2c2cc(C)on2)cc1OC (stereo not given)	inconclusive: 10 µM [inhibitor, full curve, poor fit]	
COc1cc(C2Nc3cc(Cl)c(S(N)(=O)=O)cc3S(=O)(=O)N2)cc(OC)c1OC (stereo not given)		inactive: 22.8%
Cc1cccc(C)c1NC(=O)CCCSc1nnc(N)s1		inactive: -1.15%
COCCN(C)C(=O)c1nc2nc(-c3ccccc3)c(Cl)cc2n1C	inconclusive: 63.1 µM [inhibitor, partial curve, poor fit]	
CC(C)NC(=O)N1CC(C(=O)NCc2ccc3c(c2)OCO3)CC(c2ccccc2)C1 (stereo not given)	inconclusive: 44.7 µM [inhibitor, partial curve]	
S=C(NCCCc1ccccc1)NC1CCCCC1	active: 44.7 µM	
COc1cccc(-c2ccccc2NC(=O)C2CCN(Cc3ccc(F)cc3)CC2)c1	inconclusive: 56.2 µM [inhibitor, partial curve, poor fit]	
Nc1nc(N)nc(-c2ccncc2)n1		inactive: 3.17%
O=C(NCC1CN(Cc2cccnc2)CC12CN(c1ccccc1)C2)C1CC1 (stereo not given)		inactive: 0.756% [at 176 µM]
Cc1nn(-c2ccccc2)c(Cl)c1/C=N/Nc1ccc(Cl)c(C(=O)O)c1		inactive: -16%
CN(C)CCOc1ccccc1C(C)(C)C	inconclusive: 0.501 µM [inhibitor, full curve, poor fit]	

Some of the entries above in another layout:
SMILES,Potency,"activity change, negative = inhibition"
CCn1c(CCCc2ccc(OC)c(C)c2)n[nH]c1=S,"inconclusive: 44.7 µM [inhibitor, partial curve, poor fit]",
COCCN(C)C(=O)c1nc2nc(-c3ccccc3)c(Cl)cc2n1C,"inconclusive: 63.1 µM [inhibitor, partial curve, poor fit]",
